In patent publication US20190167771:
Weaker means in comparison with the reference protein, sequence or condition of that experiment.

Amino acid sequences for entries named in this document (tags omitted).
UniProt P49591, whole entry S101D/S241D: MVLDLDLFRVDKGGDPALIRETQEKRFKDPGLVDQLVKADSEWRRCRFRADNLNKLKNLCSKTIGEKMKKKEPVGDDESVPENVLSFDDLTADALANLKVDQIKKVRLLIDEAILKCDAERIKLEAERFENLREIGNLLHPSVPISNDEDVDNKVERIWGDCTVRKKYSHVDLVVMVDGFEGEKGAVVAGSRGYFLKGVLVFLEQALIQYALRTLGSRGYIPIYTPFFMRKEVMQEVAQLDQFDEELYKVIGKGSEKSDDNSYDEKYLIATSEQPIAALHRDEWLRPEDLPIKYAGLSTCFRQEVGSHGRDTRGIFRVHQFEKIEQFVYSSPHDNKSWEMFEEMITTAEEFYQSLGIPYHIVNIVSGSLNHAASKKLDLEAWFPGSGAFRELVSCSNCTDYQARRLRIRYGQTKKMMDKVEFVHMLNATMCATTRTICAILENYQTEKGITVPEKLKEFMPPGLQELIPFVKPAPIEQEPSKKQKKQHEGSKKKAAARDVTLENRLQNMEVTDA

Target: SerRS S101D/S241D (Homo sapiens) (UniProt P49591)
Assay: EMSA
Conditions: phosphomimetic; binding attenuated vs wild type; same buffer; purified recombinant protein; protein details: C-terminal His6; label: 5'-32P

GGCGGGGCGGAGCCATGCGCCCCCCCC (double strand) [VEGFA promoter 27-bp SerRS site]
binding result: binds more weakly
